According to PubChem BioAssay AID595 (National Center for Advancing Translational Sciences (NCATS), 2007):
Where “and” joins values, the source holds several entries; their conditions need not be identical. Equal entries are not always repeated. Out of some 71,000 compounds screened, about 310 (0.44%) were called active. The inconclusive results got no clear call from the source; some entries with a clear call stand among them for comparison. Calls follow the shape of the dose curve; as a rule, active = well fitted curve in either direction with a large enough effect; inconclusive = small, poorly fitted or top-dose-only effect, or another doubt; inactive = flat fitted curve, though single readings scatter. Potencies beside an inconclusive call are fits to weak or partial responses and may not hold up.

Each molecule was assayed on Hsp90 C-terminal peptide / TPR2A (Hop) interaction, human (assay: qHTS Assay for Disrupters of an Hsp90 Co-Chaperone Interaction). Conditions: AlphaScreen TPR2A-His6 binding biotin-Hsp90 C-terminal peptide; activity change, negative = inhibition: at 57 µM (top of the series) unless noted.
% is scaled to controls: 0 for no effect and ±100 for the full control effect; potency is read from the fitted curve at half-maximal effect.

Structure (SMILES)	Potency	activity change, negative = inhibition
COc1ccc(-n2nc(C(F)(F)F)cc2-c2ccc(Cl)cc2)cc1	inconclusive: 31.6 µM [activator, single point]	
Cc1ccc(CN2C(=O)NC(=O)C3(Cc4c(nc5ccccn5c4=O)N4CCCCCC43)C2=O)cc1 (configuration not stated)		inactive
CCCc1cc2c(n1Cc1ccc(C)cc1)C(C)C1CN(C(=O)c3ccccc3)C(C)(C(=O)OC)C21 (configuration not stated)		inconclusive: 40.3%
CC(C)Nc1ccc(Nc2ccccc2)cc1	inconclusive: 15.8 µM [inhibitor, partial curve]	
Cc1cc2c(s1)NC(=O)CN=C2c1cccs1		inactive
CCCCCP(=O)(O)c1ccccc1		inactive
Cc1c(C(=O)c2cccc3ccccc23)c2cccc3c2n1[C@H](CN1CCOCC1)CO3	inconclusive: 15.8 µM [inhibitor, partial curve]	
c1ccc2c(CCNC3=NCCC3)c[nH]c2c1		inactive
CCN(CC)CCO		inconclusive: 48.4%
O=[N+]([O-])CCO		inactive
CCCCCCCCCc1ccc(O)cc1		inconclusive: 35.9%
[O]=[Cr](=[O])([OH])[O][Cr](=[O])(=[O])[OH]	inconclusive: 31.6 µM [inhibitor, partial curve]	
CCCCC(CC)COC(=O)c1ccccc1C(=O)OCC(CC)CCCC (configuration not stated)	inconclusive: 25.1 µM [activator, partial curve]	
CCCCc1ccc(C(=O)O)nc1	active: 7.94 µM and active: 5.01 µM and active: 2.51 µM	
c1cc2ccc3cccc4ccc(c1)c2c34	inconclusive: 39.8 µM [activator, single point]	
Oc1cccc2cccnc12	active: 7.94 µM and active: 10 µM and inconclusive: 3.16 µM [inhibitor, single point]	
CCCCCCn1c(N)c(C(=O)NCCN2CCOCC2)c2nc3ccccc3nc21	inconclusive: 20 µM [activator, partial curve]	
O=C1CCCN1CC#CCN1CCCC1		inactive
C[C@@]12CC[C@H](O)C[C@@H]1CC[C@H]1[C@H]2C[C@@H](O)[C@]2(C)[C@@H](C3=CC(=O)OC3)CC[C@@]12O		inconclusive: 59.8%
O=C(c1ccccc1)[C@H]1[C@H](c2ccccc2[N+](=O)[O-])N1C1CCCCC1 (some centres not stated)		inactive: -3.17% [at 11 µM]
CN(N=O)c1cc(O)ccc1O	inconclusive: 25.1 µM [inhibitor, single point]	
N[C@H](CCCCCP(=O)(O)O)C(=O)O		inconclusive: 67.3%

Structure (SMILES)	Potency	activity change, negative = inhibition
Cn1ncnc2c(=O)n(C)c(=O)nc1-2	active: 0.794 µM	
CC(C)CC(C)Nc1ccc(Nc2ccccc2)cc1 (configuration not stated)	inconclusive: 31.6 µM [inhibitor, partial curve]	
CN(C)c1ccc(N=Nc2ccccc2)cc1	active: 12.6 µM	
Cc1cc(Cl)ccc1O		inactive
COc1ccc(Cn2c(N)c(C(=O)NCc3ccco3)c3nc4ccccc4nc32)cc1OC	inconclusive: 25.1 µM [activator, single point]	
Oc1ccc2c3c1O[C@@H]1c4[nH]c5c(c4C[C@@]4(O)[C@@H](C2)N(CC2CC2)CC[C@]314)C[C@]1(O)[C@@H]2Cc3ccc(O)c4c3[C@@]1(CCN2CC1CC1)[C@H]5O4	inconclusive: 12.6 µM [inhibitor, single point]	
COc1ccc(C=O)cc1		inactive
CCOC(=O)C1C2NC(=O)N(Cc3ccccc3)C1(C)Oc1c(OC)cccc12 (configuration not stated)		inconclusive: 51.2%
Nc1c(C(=O)NC2CCCC2)c2nc3ccccc3nc2n1CC1CCCO1 (configuration not stated)	inconclusive: 25.1 µM [activator, single point]	
CC[C@H](CO)NC(=O)[C@@H]1C=C2c3cccc4[nH]cc(c34)C[C@@H]2N(C)C1		inactive
CCCS(=O)(=O)N1CCC(C(=O)N2CCC3(CC2)OCCO3)CC1		inconclusive: 39.9%
CN1C[C@H](C(=O)N[C@@]2(C)O[C@@]3(O)[C@H]4CCCN4C(=O)[C@@H](Cc4ccccc4)N3C2=O)C=C2c3cccc4[nH]cc(c34)C[C@@H]21		inactive: -11.6% [at 11 µM]
O=c1c2ccccc2nc(CSc2ncnc3nc[nH]c23)n1-c1ccccc1		inconclusive: 39.5%
CC(=O)O[C@H]1CC[C@H]2[C@@H]3CCC4=C[C@@H](C5SCCS5)[C@H](OC(C)=O)C[C@]4(C)[C@H]3CC[C@@]12C		inconclusive: 87.8% [at 11 µM]
CC(C)(O)[C@H]1[C@H]2OC(=O)[C@@H]1[C@]1(O)C[C@H]3O[C@]34C(=O)O[C@H]2[C@]14C (tested in a mixture with another compound)		inactive
Cn1c(O)c(C=NCc2ccco2)c(=O)n(C)c1=O		inactive
COC(=O)[C@@H]1C[C@H]1[C@@H](NP(=O)(c1ccccc1)c1ccccc1)c1ccccc1		inactive
Cc1ccc2c(c1)CC1(CN2C)C(=O)NC(=O)N(c2ccccc2C)C1=O (configuration not stated)		inconclusive: 42.8%
C[C@@]12CC[C@H]3[C@@H](CCC4=CC(=O)CC[C@]43C)[C@H]1CCC2=O		inactive
C=C(C)[C@H]1[C@H]2OC(=O)[C@@H]1[C@]1(O)C[C@H]3O[C@]34C(=O)O[C@H]2[C@]14C		inconclusive: 56.4%
O=C1CC(N2CCC(n3c(=O)[nH]c4ccccc43)CC2)C(=O)N1c1ccc(F)cc1 (configuration not stated)		inconclusive: 49%
O=P(OCCCl)(OCCCl)OCCCl		inconclusive: 50.9%
CN(C)CCC(C#N)(c1ccccc1)c1ccccc1		inactive: -0.194% [at 11 µM]

Part of the list above, field by field.
Cc1cc2c(s1)NC(=O)CN=C2c1cccs1
  activity change, negative = inhibition: inactive
CCCCCP(=O)(O)c1ccccc1
  activity change, negative = inhibition: inactive
Cc1c(C(=O)c2cccc3ccccc23)c2cccc3c2n1[C@H](CN1CCOCC1)CO3
  Potency: inconclusive: 15.8 µM [inhibitor, partial curve]
c1ccc2c(CCNC3=NCCC3)c[nH]c2c1
  activity change, negative = inhibition: inactive

Carrying on:

Structure (SMILES)	Potency	activity change, negative = inhibition
CC(C)C[C@H]1C(=O)N2CCC[C@@H]2[C@]2(O)O[C@](NC(=O)[C@H]3C=C4c5cccc6[nH]cc(c56)C[C@H]4N(C)C3)(C(C)C)C(=O)N12	inconclusive: 39.8 µM [inhibitor, single point]	
Nc1cc(Cl)ccc1O		inconclusive: 33.4%
COc1ccc2c(c1OC)C(=O)OC2c1c(O)n(Cc2ccc(F)cc2)c(=O)[nH]c1=O (configuration not stated)		inconclusive: 41.9%
N#CCCC#N		inconclusive: 44.4%
O=C(Nc1ccc2c(c1)OCO2)c1cn(Cc2ccc(F)cc2)nn1		inactive
c1ccc2c(NC3=NCCS3)cccc2c1	inconclusive: 31.6 µM [activator, single point]	
c1cncc([C@H]2CCCCN2)c1	inconclusive: 39.8 µM [inhibitor, single point]	
CCOc1cccc(N2C(=O)CC(=O)NC2=O)c1		inconclusive: 34.6%
CC(C)[C@@]1(NC(=O)[C@H]2C[C@H]3c4cccc5[nH]cc(c45)C[C@@H]3N(C)C2)O[C@]2(O)[C@H]3CCCN3C(=O)[C@H](Cc3ccccc3)N2C1=O		inconclusive: 12.3%
Cc1ccc(OP(=O)(Oc2ccc(C)cc2)Oc2ccc(C)cc2)cc1	active: 15.8 µM [activator]	
COc1ccc(CCn2c(O)c(C=NCCCN(C)C)c(=O)[nH]c2=O)cc1OC		inconclusive: 41.1%
Cc1cccn2c(=O)c3c(nc12)N1CCC(Cc2ccccc2)CC1C1(C3)C(=O)N(C)C(=O)N(C)C1=O (configuration not stated)		inactive
O=C1C2CCCN2C(c2ccc(Cl)cc2)N1c1ccccn1 (configuration not stated)		inactive
COCCOC(=O)c1c(N)n(Cc2ccc(OC)cc2)c2nc3ccccc3nc12	inconclusive: 31.6 µM [activator, single point]	
CN(C)C(=S)SSC(=S)N(C)C		inconclusive: -14.3%
Cc1ccc(OCC(=O)N2CCN(CC3CC4C=CC3C4)CC2)cc1 (configuration not stated)		inconclusive: 74.2%
CCCCCC[N+](=O)[O-]		inactive
CCCN(CCC)[C@@H]1CCc2c(OC)cccc2[C@@H]1C		inactive
Brc1ccc(Oc2ccc(Br)cc2Br)c(Br)c1	active: 31.6 µM [activator]	
CC(=NCc1cccnc1)c1c(O)n(C2CCCCC2)c(=O)[nH]c1=O		inconclusive: 42.7%
Cc1cc(NC(=O)COC(=O)c2c(C)nn(Cc3ccccc3)c2Cl)no1		inactive

Reformatted as a markdown table: entries from further up.

| Structure (SMILES) | Potency | activity change, negative = inhibition |
| --- | --- | --- |
| CC(=O)O[C@H]1CC[C@H]2[C@@H]3CCC4=C[C@@H](C5SCCS5)[C@H](OC(C)=O)C[C@]4(C)[C@H]3CC[C@@]12C |  | inconclusive: 87.8% [at 11 µM] |
| CCCN(CCC)[C@@H]1CCc2c(OC)cccc2[C@@H]1C |  | inactive |
